Like-named read-outs stand apart in the source and are kept apart here. These are yes or no findings as the source states them, for the method shown. Binding seen in cells or lysates may run through a third protein. Some results given as binding are weak or reduced against the parent protein; the word gives no strength. For some of these results: Tags and fused reporters may be left off the sequences shown. Each block holds one molecule with its values, some of them ahead of it.
Experiments:
His-tagged LAMC2 = molecular target: T1, His-tagged LAMC2 (UniProt Q13753); experiment: co-IP; lysate of A549 or MCF7 cells transfected with His-tagged LAMC2 plasmid (150 mM NaCl, 1% NP-40, 50 mM Tris-HCl pH 8.0), anti-His on Dynal magnetic beads overnight at 4 °C, five washes with PBS, western blot
T1 sequence: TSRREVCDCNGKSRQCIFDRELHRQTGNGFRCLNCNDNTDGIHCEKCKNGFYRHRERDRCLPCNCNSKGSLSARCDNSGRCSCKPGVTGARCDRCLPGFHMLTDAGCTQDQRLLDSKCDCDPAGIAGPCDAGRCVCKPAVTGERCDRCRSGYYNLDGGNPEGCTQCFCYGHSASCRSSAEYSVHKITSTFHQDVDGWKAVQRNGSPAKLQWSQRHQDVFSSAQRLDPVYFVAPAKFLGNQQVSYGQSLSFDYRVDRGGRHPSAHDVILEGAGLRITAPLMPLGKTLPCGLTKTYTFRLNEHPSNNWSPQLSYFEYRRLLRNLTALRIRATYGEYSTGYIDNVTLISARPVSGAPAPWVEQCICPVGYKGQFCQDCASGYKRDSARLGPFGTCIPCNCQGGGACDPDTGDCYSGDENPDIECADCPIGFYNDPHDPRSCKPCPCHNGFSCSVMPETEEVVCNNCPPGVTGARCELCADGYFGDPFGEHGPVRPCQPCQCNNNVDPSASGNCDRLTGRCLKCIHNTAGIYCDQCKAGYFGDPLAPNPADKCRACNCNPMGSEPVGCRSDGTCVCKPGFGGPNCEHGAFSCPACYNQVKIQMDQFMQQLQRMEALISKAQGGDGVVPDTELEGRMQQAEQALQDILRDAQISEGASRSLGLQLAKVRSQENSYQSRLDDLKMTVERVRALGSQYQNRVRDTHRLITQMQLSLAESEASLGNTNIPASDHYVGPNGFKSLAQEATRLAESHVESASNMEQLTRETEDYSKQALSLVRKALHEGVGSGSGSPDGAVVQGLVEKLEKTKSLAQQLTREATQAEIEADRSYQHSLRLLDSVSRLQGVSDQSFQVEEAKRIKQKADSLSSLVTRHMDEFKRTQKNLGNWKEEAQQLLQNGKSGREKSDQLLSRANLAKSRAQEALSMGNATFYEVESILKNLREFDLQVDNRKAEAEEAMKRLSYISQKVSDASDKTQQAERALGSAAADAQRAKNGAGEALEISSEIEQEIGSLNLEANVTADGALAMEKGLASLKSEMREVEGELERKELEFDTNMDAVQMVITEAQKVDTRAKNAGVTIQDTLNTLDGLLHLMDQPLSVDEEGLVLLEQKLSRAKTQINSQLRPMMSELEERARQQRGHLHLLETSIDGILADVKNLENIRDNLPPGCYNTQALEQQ

Chains of the proteins cited; added tags and fusions are not shown.
UniProt P35580: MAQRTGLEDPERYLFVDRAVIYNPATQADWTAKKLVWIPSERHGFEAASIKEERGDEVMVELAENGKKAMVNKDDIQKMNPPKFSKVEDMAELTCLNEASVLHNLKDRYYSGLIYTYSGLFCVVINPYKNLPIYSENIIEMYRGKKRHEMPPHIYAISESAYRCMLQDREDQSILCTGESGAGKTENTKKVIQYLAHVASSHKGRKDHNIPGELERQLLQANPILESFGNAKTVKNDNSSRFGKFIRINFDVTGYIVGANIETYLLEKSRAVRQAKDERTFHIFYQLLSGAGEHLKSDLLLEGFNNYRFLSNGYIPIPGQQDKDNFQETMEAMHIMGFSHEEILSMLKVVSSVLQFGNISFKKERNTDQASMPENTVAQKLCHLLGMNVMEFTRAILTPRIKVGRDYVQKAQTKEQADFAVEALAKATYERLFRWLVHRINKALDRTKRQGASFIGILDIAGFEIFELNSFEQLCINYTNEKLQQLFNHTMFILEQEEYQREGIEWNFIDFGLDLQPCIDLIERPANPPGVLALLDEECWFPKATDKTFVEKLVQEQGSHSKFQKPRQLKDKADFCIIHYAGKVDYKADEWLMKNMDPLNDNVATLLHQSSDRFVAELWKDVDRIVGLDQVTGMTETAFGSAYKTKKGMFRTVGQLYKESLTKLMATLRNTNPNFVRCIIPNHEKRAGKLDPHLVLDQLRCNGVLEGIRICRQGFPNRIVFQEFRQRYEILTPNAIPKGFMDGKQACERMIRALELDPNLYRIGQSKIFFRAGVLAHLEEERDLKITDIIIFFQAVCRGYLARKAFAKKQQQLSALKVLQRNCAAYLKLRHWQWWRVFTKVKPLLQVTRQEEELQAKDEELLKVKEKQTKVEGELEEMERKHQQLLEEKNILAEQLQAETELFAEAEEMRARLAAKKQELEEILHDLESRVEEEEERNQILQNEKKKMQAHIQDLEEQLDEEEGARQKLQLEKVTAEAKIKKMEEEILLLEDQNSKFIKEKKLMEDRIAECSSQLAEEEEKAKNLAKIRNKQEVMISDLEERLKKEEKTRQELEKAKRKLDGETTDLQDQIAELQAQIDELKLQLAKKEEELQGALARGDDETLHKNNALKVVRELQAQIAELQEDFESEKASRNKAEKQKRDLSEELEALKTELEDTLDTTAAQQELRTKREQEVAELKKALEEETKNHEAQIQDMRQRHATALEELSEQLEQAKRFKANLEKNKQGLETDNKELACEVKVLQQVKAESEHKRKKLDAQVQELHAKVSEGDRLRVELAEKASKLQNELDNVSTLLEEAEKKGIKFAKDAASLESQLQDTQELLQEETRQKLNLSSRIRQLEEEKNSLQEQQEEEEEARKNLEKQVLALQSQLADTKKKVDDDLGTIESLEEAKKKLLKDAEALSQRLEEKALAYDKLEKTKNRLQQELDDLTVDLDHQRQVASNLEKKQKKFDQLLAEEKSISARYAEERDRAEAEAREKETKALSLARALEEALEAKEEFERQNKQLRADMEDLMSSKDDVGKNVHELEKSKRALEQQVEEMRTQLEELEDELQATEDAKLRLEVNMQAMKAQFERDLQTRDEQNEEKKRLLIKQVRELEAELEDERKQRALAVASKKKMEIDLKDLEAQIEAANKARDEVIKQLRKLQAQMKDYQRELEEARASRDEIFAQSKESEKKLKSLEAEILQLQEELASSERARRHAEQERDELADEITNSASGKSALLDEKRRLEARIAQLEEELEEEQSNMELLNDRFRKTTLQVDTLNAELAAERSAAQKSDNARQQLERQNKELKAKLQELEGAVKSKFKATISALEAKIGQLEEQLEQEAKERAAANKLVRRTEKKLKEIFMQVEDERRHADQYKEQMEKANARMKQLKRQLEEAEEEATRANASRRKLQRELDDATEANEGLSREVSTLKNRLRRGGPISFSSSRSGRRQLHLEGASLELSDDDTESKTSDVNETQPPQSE
UniProt P35579: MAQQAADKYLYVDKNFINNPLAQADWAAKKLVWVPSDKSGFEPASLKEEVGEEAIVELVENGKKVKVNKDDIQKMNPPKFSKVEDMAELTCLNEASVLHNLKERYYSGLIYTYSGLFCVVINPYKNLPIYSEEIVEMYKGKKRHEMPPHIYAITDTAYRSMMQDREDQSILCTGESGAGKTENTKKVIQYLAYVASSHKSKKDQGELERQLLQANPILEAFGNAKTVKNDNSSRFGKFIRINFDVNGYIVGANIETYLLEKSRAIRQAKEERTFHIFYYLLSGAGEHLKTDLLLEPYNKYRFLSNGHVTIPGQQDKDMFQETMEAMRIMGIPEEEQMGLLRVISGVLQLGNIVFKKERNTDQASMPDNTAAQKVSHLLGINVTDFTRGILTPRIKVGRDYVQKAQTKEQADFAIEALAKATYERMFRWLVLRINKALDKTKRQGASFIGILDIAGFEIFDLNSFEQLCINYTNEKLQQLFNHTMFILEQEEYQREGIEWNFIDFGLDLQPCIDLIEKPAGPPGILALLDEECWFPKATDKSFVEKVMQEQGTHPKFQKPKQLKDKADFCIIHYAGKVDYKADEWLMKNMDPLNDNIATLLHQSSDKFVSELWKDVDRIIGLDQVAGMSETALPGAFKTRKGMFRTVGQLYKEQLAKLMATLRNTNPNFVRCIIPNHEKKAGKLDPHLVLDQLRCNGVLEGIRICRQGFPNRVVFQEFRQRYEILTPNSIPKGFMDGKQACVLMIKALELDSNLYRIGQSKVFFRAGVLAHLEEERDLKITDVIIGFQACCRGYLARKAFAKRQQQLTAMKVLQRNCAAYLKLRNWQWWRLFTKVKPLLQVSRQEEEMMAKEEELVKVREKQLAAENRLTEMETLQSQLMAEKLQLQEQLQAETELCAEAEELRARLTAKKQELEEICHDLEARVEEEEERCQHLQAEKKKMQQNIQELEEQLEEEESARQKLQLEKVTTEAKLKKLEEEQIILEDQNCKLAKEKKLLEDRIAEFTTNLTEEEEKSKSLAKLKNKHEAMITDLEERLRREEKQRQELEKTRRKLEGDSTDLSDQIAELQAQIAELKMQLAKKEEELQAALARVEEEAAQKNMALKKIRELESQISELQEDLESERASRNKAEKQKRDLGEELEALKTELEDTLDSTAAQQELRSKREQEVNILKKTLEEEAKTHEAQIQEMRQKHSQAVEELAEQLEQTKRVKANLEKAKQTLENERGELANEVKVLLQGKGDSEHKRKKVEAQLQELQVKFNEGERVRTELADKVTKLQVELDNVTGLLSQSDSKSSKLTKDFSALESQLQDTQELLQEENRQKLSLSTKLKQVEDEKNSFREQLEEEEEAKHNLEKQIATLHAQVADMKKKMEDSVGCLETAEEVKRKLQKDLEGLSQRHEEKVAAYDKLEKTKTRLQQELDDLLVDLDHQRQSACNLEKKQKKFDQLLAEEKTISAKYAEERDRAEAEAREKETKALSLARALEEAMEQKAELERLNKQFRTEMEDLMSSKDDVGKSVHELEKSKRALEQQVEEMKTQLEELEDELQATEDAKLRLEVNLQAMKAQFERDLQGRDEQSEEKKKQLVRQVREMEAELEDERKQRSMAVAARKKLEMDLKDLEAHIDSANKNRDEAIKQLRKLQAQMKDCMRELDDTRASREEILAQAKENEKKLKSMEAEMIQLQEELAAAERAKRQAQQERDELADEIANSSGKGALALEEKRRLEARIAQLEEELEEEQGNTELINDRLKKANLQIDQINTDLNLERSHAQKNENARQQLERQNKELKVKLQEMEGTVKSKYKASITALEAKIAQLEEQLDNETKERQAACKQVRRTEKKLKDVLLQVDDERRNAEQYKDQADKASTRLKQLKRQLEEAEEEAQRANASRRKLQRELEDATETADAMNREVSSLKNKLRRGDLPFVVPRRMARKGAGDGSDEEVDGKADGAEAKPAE

[1] = molecular target: T2, Laminin-5γ-2 (LAMC2) (human (endogenous in A549 and MCF7)) (UniProt Q13753); experiment: co-IP; total lysate of A549 or MCF7 cells (150 mM NaCl, 1% NP-40, 50 mM Tris-HCl pH 8.0, protease inhibitor) with anti-LAMC2, anti-MYH9 or anti-MYH10 on Dynal magnetic beads overnight at 4 °C, five washes with PBS, western blot; also control and LAMC2 overexpressing cells treated with tunicamycin
T2 sequence: T1 sequence

[2] = molecular target: myosin heavy-chain 10 (MYH10) (human (endogenous in A549 and MCF7)) (UniProt P35580); experiment: as above
[3] = molecular target: myosin heavy-chain 9 (MYH9) (human (endogenous in A549 and MCF7)) (UniProt P35579); experiment: as above
[4] = molecular target: myosin heavy-chain 10 (MYH10) (human (endogenous in A549 and MCF7)) (UniProt P35580); experiment: as above; remark: listed apart in the source
[5] = molecular target: myosin heavy-chain 9 (MYH9) (human (endogenous in A549 and MCF7)) (UniProt P35579); experiment: as above; remark: listed apart in the source

B1: LAMC2 of LAMC2 overexpressing cells (protein, UniProt Q13753 22-1193)
chain: T1 sequence
binding [4]: binds
binding [5]: binds

B2: Laminin-5γ-2 (LAMC2) (protein, UniProt Q13753 22-1193)
chain: T1 sequence
binding [4]: binds
binding [5]: binds

Second part, the molecule after the results:

binding (His-tagged LAMC2): binds
binding [1]: binds
binding [2]: binds
Molecule: myosin heavy-chain 9 (MYH9) (from UniProt P35579 1-1960)

binding (His-tagged LAMC2): binds
binding [1]: binds
binding [3]: binds
Molecule: myosin heavy-chain 10 (MYH10) (from UniProt P35580 1-1976)
